{"source": "PubChem BioAssay AID1224830, NIAID | 2016", "assay": "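Host factors that control LPS-induced TNF expression in human macrophages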 (primary screen)", "cell system": "human THP-1 monocytic leukaemia cells, TNF dual-luciferase reporter clone, PMA-differentiated to macrophage-like cells", "knock-down reagent": "siRNA pool against human genes, 50 nM", "timing": "LPS for 4 h, given about 3 days after siRNA transfection", "challenge": "bacterial LPS (TLR4 ligand), 10 ng/ml", "detection": "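TNF firefly reporter luminescence divided by renilla, normalised to the plate median, then turned into a robust z-score for each replicate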", "direction": "TNF reporter robust z-score: higher = stronger TNF reporter response to LPS", "hit rule": "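Each well counts as active if its z-score is over 2.8 or under -1.5; controls are left without a call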", "note": "In all, the deposit lists about 18,000 reagents; shown is a random part of them. About 2,900 of them (16%) were called active. 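Calls are made per well; low scores hint the gene aids the LPS response, high scores that it dampens it.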 Repeated entries: four replicate wells of each siRNA pool."}
{"Target gene": "CTAGE6 (GeneID 340307)", "TNF reporter robust z-score": 0.56, "Outcome": "inactive"}
{"Target gene": "CTAGE6 (GeneID 340307)", "TNF reporter robust z-score": 1, "Outcome": "inactive"}
{"Target gene": "CTAGE6 (GeneID 340307)", "TNF reporter robust z-score": 0.41, "Outcome": "inactive"}
{"Target gene": "CTAGE6 (GeneID 340307)", "TNF reporter robust z-score": 0.84, "Outcome": "inactive"}
{"Target gene": "MOB1B (GeneID 92597)", "TNF reporter robust z-score": -1.08, "Outcome": "inactive"}
{"Target gene": "MOB1B (GeneID 92597)", "TNF reporter robust z-score": -0.35, "Outcome": "inactive"}
{"Target gene": "MOB1B (GeneID 92597)", "TNF reporter robust z-score": -0.78, "Outcome": "inactive"}
{"Target gene": "MOB1B (GeneID 92597)", "TNF reporter robust z-score": -0.27, "Outcome": "inactive"}
{"Target gene": "FKBP15 (GeneID 23307)", "TNF reporter robust z-score": 0.58, "Outcome": "inactive"}
{"Target gene": "FKBP15 (GeneID 23307)", "TNF reporter robust z-score": 1.45, "Outcome": "inactive"}
{"Target gene": "FKBP15 (GeneID 23307)", "TNF reporter robust z-score": -0.54, "Outcome": "inactive"}
{"Target gene": "FKBP15 (GeneID 23307)", "TNF reporter robust z-score": -0.46, "Outcome": "inactive"}
{"Target gene": "DHRS2 (GeneID 10202)", "TNF reporter robust z-score": 0, "Outcome": "inactive"}
{"Target gene": "DHRS2 (GeneID 10202)", "TNF reporter robust z-score": 0.18, "Outcome": "inactive"}
{"Target gene": "DHRS2 (GeneID 10202)", "TNF reporter robust z-score": 0.07, "Outcome": "inactive"}
{"Target gene": "DHRS2 (GeneID 10202)", "TNF reporter robust z-score": 0.56, "Outcome": "inactive"}
{"Target gene": "LRRC34 (GeneID 151827)", "TNF reporter robust z-score": -0.1, "Outcome": "inactive"}
{"Target gene": "LRRC34 (GeneID 151827)", "TNF reporter robust z-score": 0.47, "Outcome": "inactive"}
{"Target gene": "LRRC34 (GeneID 151827)", "TNF reporter robust z-score": -0.02, "Outcome": "inactive"}
{"Target gene": "LRRC34 (GeneID 151827)", "TNF reporter robust z-score": 0.27, "Outcome": "inactive"}
{"Target gene": "HPGDS (GeneID 27306)", "TNF reporter robust z-score": 0.3, "Outcome": "inactive"}
{"Target gene": "HPGDS (GeneID 27306)", "TNF reporter robust z-score": -0.51, "Outcome": "inactive"}
{"Target gene": "HPGDS (GeneID 27306)", "TNF reporter robust z-score": -1.07, "Outcome": "inactive"}
{"Target gene": "HPGDS (GeneID 27306)", "TNF reporter robust z-score": 0.15, "Outcome": "inactive"}
{"Target gene": "TRIM14 (GeneID 9830)", "TNF reporter robust z-score": 0.39, "Outcome": "inactive"}
{"Target gene": "TRIM14 (GeneID 9830)", "TNF reporter robust z-score": 1.43, "Outcome": "inactive"}
{"Target gene": "TRIM14 (GeneID 9830)", "TNF reporter robust z-score": -0.66, "Outcome": "inactive"}
{"Target gene": "TRIM14 (GeneID 9830)", "TNF reporter robust z-score": -0.74, "Outcome": "inactive"}
{"Target gene": "RPGRIP1L (GeneID 23322)", "TNF reporter robust z-score": -1.42, "Outcome": "inactive"}
{"Target gene": "RPGRIP1L (GeneID 23322)", "TNF reporter robust z-score": -0.77, "Outcome": "inactive"}
{"Target gene": "RPGRIP1L (GeneID 23322)", "TNF reporter robust z-score": -1.12, "Outcome": "inactive"}
{"Target gene": "RPGRIP1L (GeneID 23322)", "TNF reporter robust z-score": -1.48, "Outcome": "inactive"}
{"Target gene": "FASTKD5 (GeneID 60493)", "TNF reporter robust z-score": -0.89, "Outcome": "inactive"}
{"Target gene": "FASTKD5 (GeneID 60493)", "TNF reporter robust z-score": 0.29, "Outcome": "inactive"}
{"Target gene": "FASTKD5 (GeneID 60493)", "TNF reporter robust z-score": -0.48, "Outcome": "inactive"}
{"Target gene": "FASTKD5 (GeneID 60493)", "TNF reporter robust z-score": -1.36, "Outcome": "inactive"}
{"Target gene": "CDC20 (GeneID 991)", "TNF reporter robust z-score": 2.33, "Outcome": "inactive"}
{"Target gene": "CDC20 (GeneID 991)", "TNF reporter robust z-score": 1.17, "Outcome": "inactive"}
{"Target gene": "CDC20 (GeneID 991)", "TNF reporter robust z-score": 2.21, "Outcome": "inactive"}
{"Target gene": "CDC20 (GeneID 991)", "TNF reporter robust z-score": -0.03, "Outcome": "inactive"}
{"Target gene": "ZNF140 (GeneID 7699)", "TNF reporter robust z-score": 0.59, "Outcome": "inactive"}
{"Target gene": "ZNF140 (GeneID 7699)", "TNF reporter robust z-score": 1.13, "Outcome": "inactive"}
{"Target gene": "ZNF140 (GeneID 7699)", "TNF reporter robust z-score": 1.08, "Outcome": "inactive"}
{"Target gene": "ZNF140 (GeneID 7699)", "TNF reporter robust z-score": 1.4, "Outcome": "inactive"}
{"Target gene": "OR2T3 (GeneID 343173)", "TNF reporter robust z-score": -0.37, "Outcome": "inactive"}
{"Target gene": "OR2T3 (GeneID 343173)", "TNF reporter robust z-score": -0.74, "Outcome": "inactive"}
{"Target gene": "OR2T3 (GeneID 343173)", "TNF reporter robust z-score": -0.48, "Outcome": "inactive"}
{"Target gene": "OR2T3 (GeneID 343173)", "TNF reporter robust z-score": -0.11, "Outcome": "inactive"}
{"Target gene": "RANBP2 (GeneID 5903)", "TNF reporter robust z-score": -1.18, "Outcome": "inactive"}
{"Target gene": "RANBP2 (GeneID 5903)", "TNF reporter robust z-score": -0.76, "Outcome": "inactive"}
{"Target gene": "RANBP2 (GeneID 5903)", "TNF reporter robust z-score": -1.37, "Outcome": "inactive"}
{"Target gene": "RANBP2 (GeneID 5903)", "TNF reporter robust z-score": -1, "Outcome": "inactive"}
{"Target gene": "HERC4 (GeneID 26091)", "TNF reporter robust z-score": -1.53, "Outcome": "active"}
{"Target gene": "HERC4 (GeneID 26091)", "TNF reporter robust z-score": -0.58, "Outcome": "inactive"}
{"Target gene": "HERC4 (GeneID 26091)", "TNF reporter robust z-score": -0.83, "Outcome": "inactive"}
{"Target gene": "HERC4 (GeneID 26091)", "TNF reporter robust z-score": -0.41, "Outcome": "inactive"}
{"Target gene": "FAM3B (GeneID 54097)", "TNF reporter robust z-score": 1.98, "Outcome": "inactive"}
{"Target gene": "FAM3B (GeneID 54097)", "TNF reporter robust z-score": 2.43, "Outcome": "inactive"}
{"Target gene": "FAM3B (GeneID 54097)", "TNF reporter robust z-score": 0.63, "Outcome": "inactive"}
{"Target gene": "FAM3B (GeneID 54097)", "TNF reporter robust z-score": -0.16, "Outcome": "inactive"}

6 entries from above, sorted by “TNF reporter robust z-score”, lowest first.
{"Target gene": "OR2T3 (GeneID 343173)", "TNF reporter robust z-score": -0.74, "Outcome": "inactive"}
{"Target gene": "OR2T3 (GeneID 343173)", "TNF reporter robust z-score": -0.48, "Outcome": "inactive"}
{"Target gene": "OR2T3 (GeneID 343173)", "TNF reporter robust z-score": -0.37, "Outcome": "inactive"}
{"Target gene": "ZNF140 (GeneID 7699)", "TNF reporter robust z-score": 1.08, "Outcome": "inactive"}
{"Target gene": "ZNF140 (GeneID 7699)", "TNF reporter robust z-score": 1.13, "Outcome": "inactive"}
{"Target gene": "ZNF140 (GeneID 7699)", "TNF reporter robust z-score": 1.4, "Outcome": "inactive"}
